This is an account of results in PMC6073292.

Results are given in words; binding and its absence hold for the method and conditions named. Binding seen in cells or lysates may run through a third protein. Some results given as binding are weak or reduced against the parent protein; the word gives no strength. For some of these results: Sequences can lack the tags named with a protein.

For experiment [1], the target named is T1, Myc-Dvl1 (Dishevelled-1, full length) (human) (UniProt O14640).
T1 sequence: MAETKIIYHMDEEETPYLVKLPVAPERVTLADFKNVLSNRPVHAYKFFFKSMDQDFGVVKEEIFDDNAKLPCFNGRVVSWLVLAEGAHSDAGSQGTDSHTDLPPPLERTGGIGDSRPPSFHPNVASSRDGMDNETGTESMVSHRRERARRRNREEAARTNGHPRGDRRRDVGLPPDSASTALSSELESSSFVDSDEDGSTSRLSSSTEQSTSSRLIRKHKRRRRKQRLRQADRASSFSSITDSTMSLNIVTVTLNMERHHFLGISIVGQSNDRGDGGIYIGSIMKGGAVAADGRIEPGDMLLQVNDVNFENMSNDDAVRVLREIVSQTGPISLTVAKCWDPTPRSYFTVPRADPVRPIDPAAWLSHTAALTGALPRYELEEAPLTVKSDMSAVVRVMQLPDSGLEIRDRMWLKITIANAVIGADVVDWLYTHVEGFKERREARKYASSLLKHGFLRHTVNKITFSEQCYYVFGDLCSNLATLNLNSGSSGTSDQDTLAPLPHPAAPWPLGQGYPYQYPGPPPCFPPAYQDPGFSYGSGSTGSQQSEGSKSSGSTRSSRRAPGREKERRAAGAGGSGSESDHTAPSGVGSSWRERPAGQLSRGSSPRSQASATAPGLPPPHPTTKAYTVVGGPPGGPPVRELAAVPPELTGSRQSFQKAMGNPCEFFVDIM
Kind of experiment: co-IP; SK-N-SH cells co-transfected with Myc-Dvl1 (or truncations) and HA-Ngb, 24 h; lysed in RIPA buffer; IP with anti-Myc antibody and Protein A/G plus-agarose at 4 °C overnight, control IgG; blot with anti-HA and anti-Myc.

Experiment [2] deals with T2, Myc-Dvl1(1–250) (human) (UniProt O14640).
T2 sequence: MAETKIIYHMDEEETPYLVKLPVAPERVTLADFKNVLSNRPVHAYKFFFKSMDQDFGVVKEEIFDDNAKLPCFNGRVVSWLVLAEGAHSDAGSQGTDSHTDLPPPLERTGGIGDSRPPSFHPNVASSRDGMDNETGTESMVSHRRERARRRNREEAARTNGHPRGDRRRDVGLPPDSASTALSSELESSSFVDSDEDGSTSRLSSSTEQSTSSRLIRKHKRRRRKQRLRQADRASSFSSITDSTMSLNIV
Described as above.

The target of experiment [3] is T3, Myc-Dvl1(337–670) (human) (UniProt O14640).
T3 sequence: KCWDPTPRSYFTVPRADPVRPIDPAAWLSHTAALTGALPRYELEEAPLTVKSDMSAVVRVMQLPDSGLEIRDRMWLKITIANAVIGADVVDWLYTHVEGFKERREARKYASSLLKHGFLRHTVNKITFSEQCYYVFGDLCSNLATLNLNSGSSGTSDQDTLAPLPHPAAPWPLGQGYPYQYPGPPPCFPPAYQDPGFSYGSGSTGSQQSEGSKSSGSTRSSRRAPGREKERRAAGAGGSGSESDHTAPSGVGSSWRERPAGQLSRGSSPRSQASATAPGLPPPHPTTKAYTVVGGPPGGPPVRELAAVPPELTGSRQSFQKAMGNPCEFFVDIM
The description is as above.

Experiment [4] has as its target T4, endogenous Dishevelled-1 (Dvl1) (human (endogenous in SK-N-SH)) (UniProt O14640).
T4 sequence: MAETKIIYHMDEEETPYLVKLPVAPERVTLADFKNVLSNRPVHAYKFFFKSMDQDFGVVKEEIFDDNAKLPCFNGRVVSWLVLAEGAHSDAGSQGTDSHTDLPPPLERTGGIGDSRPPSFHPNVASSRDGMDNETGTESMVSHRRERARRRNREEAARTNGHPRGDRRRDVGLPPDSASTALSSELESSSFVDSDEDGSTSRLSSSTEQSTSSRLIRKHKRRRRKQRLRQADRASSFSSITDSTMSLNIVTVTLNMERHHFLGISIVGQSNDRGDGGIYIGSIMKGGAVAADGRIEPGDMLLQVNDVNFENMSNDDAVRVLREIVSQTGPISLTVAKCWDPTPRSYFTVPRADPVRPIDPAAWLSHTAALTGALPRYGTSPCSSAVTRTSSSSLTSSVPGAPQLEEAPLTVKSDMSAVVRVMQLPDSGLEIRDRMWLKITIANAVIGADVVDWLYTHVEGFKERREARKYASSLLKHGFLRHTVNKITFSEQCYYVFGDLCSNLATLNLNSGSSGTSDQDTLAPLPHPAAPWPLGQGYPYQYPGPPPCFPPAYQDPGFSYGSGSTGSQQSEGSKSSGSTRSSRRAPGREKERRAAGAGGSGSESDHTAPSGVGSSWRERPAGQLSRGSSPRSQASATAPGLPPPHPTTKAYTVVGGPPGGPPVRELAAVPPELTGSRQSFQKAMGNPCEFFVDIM
Kind of experiment: co-IP; endogenous proteins of SK-N-SH cells; lysed in RIPA buffer; IP with anti-Dvl1 rabbit polyclonal antibody and Protein A/G plus-agarose at 4 °C overnight, rabbit IgG as control; blot with anti-Ngb and anti-Dvl1; also cells treated with 10 ng/mL TNF-α or PBS for 1 h (more Ngb precipitated with TNF-α).

B1: HA-Ngb (Neuroglobin) (protein, UniProt Q9NPG2 1-151)
chain: MERPEPELIRQSWRAVSRSPLEHGTVLFARLFALEPDLLPLFQYNCRQFSSPEDCLSSPEFLDHIRKVMLVIDAAVTNVEDLSSLEEYLASLGRKHRAVGVKLSSFSTVGESLLYMLEKCLGPAFTPATRAAWSQLYGAVVQAMSRGWDGE
Take B1: the binding entry was “binds” in experiment [1], “binds” in experiment [2] and “no binding” in experiment [3].

B2: endogenous Neuroglobin (Ngb) (protein, UniProt Q9NPG2 1-151)
chain: MERPEPELIRQSWRAVSRSPLEHGTVLFARLFALEPDLLPLFQYNCRQFSSPEDCLSSPEFLDHIRKVMLVIDAAVTNVEDLSSLEEYLASLGRKHRAVGVKLSSFSTVGESLLYMLEKCLGPAFTPATRAAWSQLYGAVVQAMSRGWDGE
On to B2, for which the binding result in experiment [4] was “binds”.
